No constants are given. Whether binding was seen depends on the method and setting. Binding seen in cells or lysates may run through a third protein.
Target: HINT2 (as used in the co-IP with SLC25A51) (UniProt Q9BX68)
Test: co-IP; co-IP of HINT2 and SLC25A51 (Supplementary Fig. 6j); cells and constructs not told in the text shown

Amino acid sequences for entries named in this document (tags omitted). Residues count along the entry.
UniProt Q9BX68, residues 18-163: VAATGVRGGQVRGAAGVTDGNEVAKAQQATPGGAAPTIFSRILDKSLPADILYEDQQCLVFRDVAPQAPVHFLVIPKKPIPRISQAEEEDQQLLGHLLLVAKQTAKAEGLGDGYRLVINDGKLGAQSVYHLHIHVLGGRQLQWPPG

B1: Solute carrier family 25 member 51 (SLC25A51) (protein, UniProt Q9H1U9 1-297)
chain: MMDSEAHEKRPPILTSSKQDISPHITNVGEMKHYLCGCCAAFNNVAITFPIQKVLFRQQLYGIKTRDAILQLRRDGFRNLYRGILPPLMQKTTTLALMFGLYEDLSCLLHKHVSAPEFATSGVAAVLAGTTEAIFTPLERVQTLLQDHKHHDKFTNTYQAFKALKCHGIGEYYRGLVPILFRNGLSNVLFFGLRGPIKEHLPTATTHSAHLVNDFICGGLLGAMLGFLFFPINVVKTRIQSQIGGEFQSFPKVFQKIWLERDRKLINLFRGAHLNYHRSLISWGIINATYEFLLKVI
In the case of B1, the binding is reported as “no binding”.

From paper PMC12130462
